# In PubChem BioAssay AID330 (DTP/NCI, 2004):
# The list shows only some results of the screen, not a fair sample: it gathers tests that were run many times, whatever their T/C, doses with no T/C, and many T/C values between a quarter and a half above the control. Further doses and runs are listed elsewhere. T/C is the treated group as % of the vehicle group. Some entries give survivors of the animals treated and no T/C: the source files T/C as zero there, which appears to mark a toxic dose or a test without result, not a measured value. Some doses without a T/C left all or most animals alive at the check, yet need not have been tolerated: survival well below the control is almost never listed, so the zero probably covers shortened survival too. Counts of survivors are from the toxicity check (mostly the fifth day) where no day follows; animals may have died later. Schedules are NCI's codes, read here as Q, the interval in days (D) or hours (H), X, the number of doses. Some entries were tested several times; their values stand side by side, smallest first. Signs of the kind (2×) say how often a value occurs here. For survival time, this PubChem deposit counts one and a half times the control or more as active, and values a quarter to a half above the control carry no call in these data; other NCI protocols may use other cut-offs. Some T/C values are followed by the survivors on the day toxicity was checked, most often the fifth; where none is given, no animal had died by that day. Some schedules carry Z or #; the key to these is not given.
# System: P388 leukemia ip, CD2F1 mice, survival T/C
# Test: NCI In Vivo Anticancer Drug Screen. Data for tumor model P388 Leukemia (intraperitoneal) in CD2F1 (CDF1) mice
# Settings: T/C endpoint: median survival time, higher T/C = longer survival
compound,measurement,setting,value
COc1cccc2c1C(=O)c1c(O)c3c(c(O)c1C2=O)C[C@@](O)(C(=O)CO)C[C@@H]3OC1CC(N)C(O)C(C)O1 (stereo partly specified),T/C,"dose: 4.0 mg/kg/injection, schedule: Q04DX003 (ip), vehicle: saline, evaluated on day 5","177, 184, 194, 243, 264 % of control"
same,T/C,"dose: 4.0 mg/kg/injection, schedule: Q04DX003 (ip), vehicle: saline, evaluated on day 8",148 % of control
same,T/C,"dose: 4.0 mg/kg/injection, schedule: Q04DX003 (ip), vehicle: saline, evaluated on day 9",163 % of control
same,T/C,"dose: 4.0 mg/kg/injection, schedule: Q04DX003 (ip), vehicle: saline, evaluated on day 10",116 % of control
same,T/C,"dose: 4.0 mg/kg/injection, schedule: Q04DX003 (ip), vehicle: saline, evaluated on day 30","108, 114 (2×), 120, 125 (2×), 133, 135, 137 (3×), 138, 140 (2×), 149, 153, 156, 162, 173, 196 % of control"
same,T/C,"dose: 4.0 mg/kg/injection, schedule: Q04DX003 (ip), vehicle: saline, evaluated on day 45","193, 206, 225 % of control (2×)"
same,T/C,"dose: 4.0 mg/kg/injection, schedule: Q04DX003 (ip), vehicle: saline, evaluated on day 60","209, 220, 245, 280 % of control"
same,T/C,"dose: 4.0 mg/kg/injection, schedule: Q04DX003 (ip), vehicle: water, evaluated on day 30, list 1 of 2","116, 118, 124, 125 (2×), 126, 128, 129, 130, 132 (2×), 133, 134, 136, 138 (2×), 139, 141, 142, 144, 145 (2×), 146 (2×), 148, 150, 153, 155, 157, 162, 163, 166, 169, 180, 203 % of control"
same,T/C,"dose: 4.0 mg/kg/injection, schedule: Q04DX003 (ip), vehicle: water, evaluated on day 30, list 2 of 2","114, 116, 120, 124, 125, 126, 127, 129, 130, 131, 132, 133, 134, 135, 137, 138, 139, 141 (2×), 143, 145 (3×), 146, 148, 149, 152, 155, 156, 160, 163, 165, 166, 169, 183, 228 % of control"
same,T/C,"dose: 4.0 mg/kg/injection, schedule: Q04DX003 (ip), vehicle: water, evaluated on day 35","124, 126 (2×), 134, 138 (2×), 141, 143, 145, 148, 153, 156, 157, 161 % of control"
same,T/C,"dose: 4.0 mg/kg/injection, schedule: Q04DX003 (ip), vehicle: water, evaluated on day 40","129, 145, 147, 151, 163 % of control"
same,T/C,"dose: 4.0 mg/kg/injection, schedule: Q04DX003 (ip), vehicle: water, evaluated on day 45","108, 117, 122, 123 (2×), 125, 126 (3×), 129 (2×), 129 [2 of 3 alive], 130, 131 (2×), 132 (2×), 133 [2 of 3 alive], 134, 135 (2×), 136 (3×), 137, 138 (3×), 140, 141 (2×), 144 (2×), 145 (2×), 145 [5 of 6 alive], 146, 149, 155, 160, 162 (3×), 163, 166, 171, 172, 175 (2×), 185, 188, 189, 208, 221, 264 % of control"
same,T/C,"dose: 4.0 mg/kg/injection, schedule: Q04DX003 (ip), vehicle: water, evaluated on day 50","118, 128, 135, 145, 155 % of control"
same,T/C,"dose: 4.0 mg/kg/injection, schedule: Q04DX003 (ip), vehicle: water, evaluated on day 60",117 and 146 % of control
same,T/C,"dose: 4.0 mg/kg/injection, schedule: Q04DX003 (iv), vehicle: saline",138 % of control
same,T/C,"dose: 4.0 mg/kg/injection, schedule: Q## X001 (ip), vehicle: saline","94, 98, 104, 113, 126, 131, 144 % of control"
same,T/C,"dose: 4.4 mg/kg/injection, schedule: Q01DX001 (ip), vehicle: saline, evaluated on day 5","106 [2 of 4 alive], 133, 161 % of control"
same,T/C,"dose: 4.4 mg/kg/injection, schedule: Q01DX001 (ip), vehicle: saline, evaluated on day 9",151 % of control
same,T/C,"dose: 4.4 mg/kg/injection, schedule: Q01DX001 (ip), vehicle: saline, evaluated on day 30","157, 176, 230 % of control"
same,T/C,"dose: 4.4 mg/kg/injection, schedule: Q01DX001 (ip), vehicle: saline, evaluated on day 47",172 % of control
same,T/C,"dose: 4.5 mg/kg/injection, schedule: Q01DX001 (ip), vehicle: saline, evaluated on day 20",185 % of control
same,T/C,"dose: 4.5 mg/kg/injection, schedule: Q01DX001 (ip), vehicle: saline, evaluated on day 23",152 % of control
same,T/C,"dose: 4.5 mg/kg/injection, schedule: Q01DX001 (ip), vehicle: saline, evaluated on day 30","92, 125, 135, 137, 157, 160 (2×), 161 (2×), 162 (2×), 163 (2×), 166, 168 (4×), 173, 175, 176, 178 (3×), 179, 180 (2×), 181 (3×), 183, 184, 185, 186, 188 (2×), 190 (2×), 191 (2×), 193, 194 (2×), 197, 200, 204 (2×), 207, 213, 218, 220 (2×), 225, 252 % of control"
same,T/C,"dose: 4.5 mg/kg/injection, schedule: Q01DX001 (ip), vehicle: saline, evaluated on day 45","145, 176, 179 % of control"
same,T/C,"dose: 4.5 mg/kg/injection, schedule: Q01DX001 (ip), vehicle: saline, evaluated on day 46",185 % of control
same,T/C,"dose: 4.5 mg/kg/injection, schedule: Q01DX001 (ip), vehicle: saline, evaluated on day 56",172 % of control
same,T/C,"dose: 4.5 mg/kg/injection, schedule: Q01DX001 (ip), vehicle: saline, evaluated on day 60",212 % of control
same,survivor count,"dose: 4.5 mg/kg/injection, schedule: Q01DX001 (ip), vehicle: saline",2 of 6
same,T/C,"dose: 4.5 mg/kg/injection, schedule: Q04DX003 (ip), vehicle: saline, evaluated on day 45","136, 170, 192, 211, 212, 245, 252, 256, 279 (2×), 283 % of control"
same,T/C,"dose: 4.5 mg/kg/injection, schedule: Q04DX003 (ip), vehicle: saline, evaluated on day 60",205 % of control
same,T/C,"dose: 4.75 mg/kg/injection, schedule: Q01DX001 (iv), vehicle: saline",127 % of control
same,T/C,"dose: 5.0 mg/kg/injection, schedule: Q01DX001 (ip), vehicle: water, evaluated on day 5",116 % of control
same,T/C,"dose: 5.0 mg/kg/injection, schedule: Q01DX001 (ip), vehicle: water, evaluated on day 30",166 and 223 % of control [5 of 6 alive]
same,T/C,"dose: 5.0 mg/kg/injection, schedule: Q01DX001 (ip), vehicle: water, evaluated on day 45","178, 179, 189, 190, 192 (2×), 199, 213 % of control"
same,T/C,"dose: 5.0 mg/kg/injection, schedule: Q04DX003 (ip), vehicle: saline, evaluated on day 8",166 % of control
same,T/C,"dose: 5.0 mg/kg/injection, schedule: Q04DX003 (ip), vehicle: saline, evaluated on day 10",128 % of control
same,T/C,"dose: 5.0 mg/kg/injection, schedule: Q04DX003 (ip), vehicle: saline, evaluated on day 45",238 % of control
same,T/C,"dose: 5.0 mg/kg/injection, schedule: Q04DX003 (ip), vehicle: saline, evaluated on day 60",218 % of control
same,T/C,"dose: 5.0 mg/kg/injection, schedule: Q04DX003 (ip), vehicle: water",129 % of control
same,T/C,"dose: 6.0 mg/kg/injection, schedule: Q04DX003 (ip), vehicle: saline, evaluated on day 5",158 % of control
same,T/C,"dose: 6.0 mg/kg/injection, schedule: Q04DX003 (ip), vehicle: saline, evaluated on day 9",165 % of control
same,T/C,"dose: 6.0 mg/kg/injection, schedule: Q04DX003 (ip), vehicle: saline, evaluated on day 30","110, 115, 166 [survivors not given], 174 % of control [survivors not given]"
same,T/C,"dose: 6.0 mg/kg/injection, schedule: Q04DX003 (ip), vehicle: saline, evaluated on day 45","120, 248, 284 % of control"
same,T/C,"dose: 6.0 mg/kg/injection, schedule: Q04DX003 (ip), vehicle: saline, evaluated on day 60","238, 264, 466 % of control"
same,survivor count,"dose: 6.0 mg/kg/injection, schedule: Q04DX003 (ip), vehicle: saline",10 of 10
same,T/C,"dose: 6.0 mg/kg/injection, schedule: Q04DX003 (ip), vehicle: water",145 % of control
same,survivor count,"dose: 6.25 mg/kg/injection, schedule: Q01DX009 (ip), vehicle: water",5 of 6 (2×) and 6 of 6 (2×)
same,T/C,"dose: 6.7 mg/kg/injection, schedule: Q01DX001 (ip), vehicle: saline, evaluated on day 5","115 [8 of 9 alive], 152, 186 % of control"
same,T/C,"dose: 6.7 mg/kg/injection, schedule: Q01DX001 (ip), vehicle: saline, evaluated on day 9",147 % of control
same,T/C,"dose: 6.7 mg/kg/injection, schedule: Q01DX001 (ip), vehicle: saline, evaluated on day 11",120 % of control [8 of 9 alive]
same,T/C,"dose: 6.7 mg/kg/injection, schedule: Q01DX001 (ip), vehicle: saline, evaluated on day 20",189 % of control
